This passage reports binding results from article PMC10182284, “Rotary properties of hybrid F1-ATPases consisting of subunits from different species” (iScience, 2023).

By UniProt entry, the sequences of proteins in these tests, tags left out. Residues count along the entry.
UniProt P00829, residues 47-528: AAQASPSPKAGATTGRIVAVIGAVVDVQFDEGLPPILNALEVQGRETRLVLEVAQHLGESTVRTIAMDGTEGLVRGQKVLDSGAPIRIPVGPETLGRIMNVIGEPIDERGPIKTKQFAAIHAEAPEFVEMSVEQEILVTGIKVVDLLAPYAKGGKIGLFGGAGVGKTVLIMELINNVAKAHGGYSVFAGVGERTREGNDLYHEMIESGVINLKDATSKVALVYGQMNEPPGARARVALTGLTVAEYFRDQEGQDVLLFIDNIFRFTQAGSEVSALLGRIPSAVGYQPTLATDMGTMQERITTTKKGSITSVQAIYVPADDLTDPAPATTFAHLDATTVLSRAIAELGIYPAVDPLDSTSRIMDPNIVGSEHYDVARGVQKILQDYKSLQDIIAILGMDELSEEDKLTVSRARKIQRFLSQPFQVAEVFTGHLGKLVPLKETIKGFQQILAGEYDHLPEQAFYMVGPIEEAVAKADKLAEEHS
UniProt A1B8P0: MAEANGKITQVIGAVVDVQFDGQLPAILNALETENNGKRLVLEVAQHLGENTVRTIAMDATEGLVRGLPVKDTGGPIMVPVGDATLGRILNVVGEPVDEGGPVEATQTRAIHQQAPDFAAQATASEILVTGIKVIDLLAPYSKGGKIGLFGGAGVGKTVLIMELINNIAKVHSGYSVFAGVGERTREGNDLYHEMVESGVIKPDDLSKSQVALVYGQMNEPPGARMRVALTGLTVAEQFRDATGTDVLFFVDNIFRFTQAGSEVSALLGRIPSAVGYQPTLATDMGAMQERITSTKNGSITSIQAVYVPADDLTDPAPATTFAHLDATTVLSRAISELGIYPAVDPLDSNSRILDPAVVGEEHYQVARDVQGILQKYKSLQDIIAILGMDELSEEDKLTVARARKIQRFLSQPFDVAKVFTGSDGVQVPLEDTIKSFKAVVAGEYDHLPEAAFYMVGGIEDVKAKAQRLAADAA
UniProt A1B8N8: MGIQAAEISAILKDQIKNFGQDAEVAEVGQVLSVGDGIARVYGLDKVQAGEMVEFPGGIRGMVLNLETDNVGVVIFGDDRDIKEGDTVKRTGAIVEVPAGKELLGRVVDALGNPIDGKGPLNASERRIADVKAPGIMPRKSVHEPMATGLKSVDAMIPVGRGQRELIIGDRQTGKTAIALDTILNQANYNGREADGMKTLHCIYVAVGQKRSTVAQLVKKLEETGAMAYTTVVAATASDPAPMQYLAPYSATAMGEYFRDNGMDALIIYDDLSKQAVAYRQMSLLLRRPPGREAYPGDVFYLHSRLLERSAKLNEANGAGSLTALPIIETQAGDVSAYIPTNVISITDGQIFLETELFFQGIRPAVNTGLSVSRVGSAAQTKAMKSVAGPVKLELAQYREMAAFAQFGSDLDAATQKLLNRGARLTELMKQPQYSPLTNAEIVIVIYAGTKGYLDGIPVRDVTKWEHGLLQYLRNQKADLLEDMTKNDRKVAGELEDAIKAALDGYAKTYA
UniProt P09219: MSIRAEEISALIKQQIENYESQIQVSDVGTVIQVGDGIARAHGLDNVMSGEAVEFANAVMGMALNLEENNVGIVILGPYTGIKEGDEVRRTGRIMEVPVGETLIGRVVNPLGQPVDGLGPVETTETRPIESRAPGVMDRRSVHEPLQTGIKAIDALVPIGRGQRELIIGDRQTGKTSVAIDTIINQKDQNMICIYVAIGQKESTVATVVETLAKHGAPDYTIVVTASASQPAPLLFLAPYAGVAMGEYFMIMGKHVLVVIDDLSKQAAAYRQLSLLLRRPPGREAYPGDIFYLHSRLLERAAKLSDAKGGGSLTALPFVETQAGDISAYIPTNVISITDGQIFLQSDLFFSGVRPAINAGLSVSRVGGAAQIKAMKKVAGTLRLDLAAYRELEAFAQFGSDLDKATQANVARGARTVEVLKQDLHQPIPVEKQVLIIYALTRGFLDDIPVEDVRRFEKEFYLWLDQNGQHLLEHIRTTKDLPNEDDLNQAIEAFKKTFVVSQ

Assay [1] concerns the target β subunit of bovine mitochondrial F1-ATPase (bMF1) (bovine) (UniProt P00829). As to the kind of experiment: co-expression and co-purification, SDS-PAGE; subunits co-expressed from one plasmid in E. coli; F1 complex purified as for bMF1 (ref. 26) or PdF1 (ref. 27); conformation of α3β3γ1 confirmed with SDS-PAGE.
The target in assay [2] is β subunit of F1-ATPase from Paracoccus denitrificans (PdF1) (Paracoccus denitrificans) (UniProt A1B8P0). Described as above.

No constants are given. Whether binding was seen depends on the method and setting. Some results given as binding are weak or reduced against the parent protein; the word gives no strength.

In the case of “α subunit of F1-ATPase from Paracoccus denitrificans (PdF1) (from UniProt A1B8N8 1-511)”, the binding entry in assay [1] and in assay [2] was “binds” in each case. As to “α subunit of F1-ATPase from thermophilic Bacillus PS3 (TF1) (from UniProt P09219 1-502)”, in assay [1], the binding result is “binds”.
